The results in this text go back to PubChem BioAssay AID662 (National Center for Advancing Translational Sciences (NCATS), 2007).

Molecules are shown by their SMILES. Several values for one entry are separate records, joined by “and”; a condition that tells them apart may be missing. Equal entries are not always repeated. The list shows a part of the results. Further columns of the screen follow, without active or inactive calls. Compounds called inactive in the main read-out are mostly missing here. The note in brackets gives the kind of curve behind each potency; many fits are weak.

This test can be described thus: Cell signaling CRE-BLA (Fsk stim). To be noted: CHO CRE-bla reporter (cAMP response element driving beta-lactamase), forskolin EC10, beta-lactamase ratio; measured here: 460 nm blue channel. The procedure, abridged:
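CRE-bla CHO reporter cells treated with compound titration plus EC10 NKH 477 (water-soluble forskolin), incubated 3 h at 37 °C; CCF4 loading 2 h at room temperature, 460/530 nm emission ratio read, AC50 values derived for positive or negative modulators.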
As for `Cc1noc(NS(=O)(=O)c2ccc(N3CC(O)=C(c4ccccc4)C3=N)cc2)c1C`, the AC50 was 3.98 µM [falling, single point].
As for `COc1ccc2c(c1)sc1nc(-c3ccccc3)cn12`, the figure is 5.01 µM [falling, single point]; as for `CCCCNc1c(C(=O)OCC)c(C)nc2c1cnn2CC`, 5.01 µM [rising, partial curve] and 2 µM [rising, full curve] and 7.94 µM [falling, partial curve, poor fit].
In the case of `Cc1nc2ccccc2nc1CSc1nncs1`, the AC50 is 12.6 µM [rising, partial curve].
With `COc1ccc(Oc2ncc3nc(C)c(=O)n(C)c3n2)cc1`, the AC50 was 12.6 µM [rising, single point].
As for `CC1CCC(n2c(=S)[nH]c3ccccc3c2=O)CC1` (configuration not stated), the AC50 is 12.6 µM [rising, partial curve].
As to `O=C(CCSc1nnc(-c2ccco2)o1)Nc1ccc(Cl)cc1`, the AC50 is 25.1 µM [falling, single point].
For `COc1ccc(CNc2ccnc(-c3ccoc3)n2)c(OC)c1` the value was 3.98 µM [rising, full curve, poor fit]; for `COc1ccc(N2CCN(S(=O)(=O)c3ccc(Br)s3)CC2)cc1`, 5.01 µM [falling, single point]; for `Cc1nc(SCC(=O)NCc2ccccc2)c2c(=O)n(C)c(=O)n(C)c2n1`, 10 µM [rising, partial curve].
Regarding `CCOC(=O)c1ccccc1NC(=O)CN(c1cccc(OC)c1)S(C)(=O)=O`, the AC50 was 1 µM [falling, single point].
Turning to `CCOc1ccc(N2C(=O)c3ccc(C(=O)OCc4c(C)noc4C)cc3C2=O)cc1`, the AC50 was 0.01 µM [falling, full curve, poor fit].
As to `COc1cccc(-c2ccc3ncnc(N4CCNCC4)c3c2)c1`, the AC50 was 3.16 µM [rising, partial curve].
Take `CCCCP(=O)(CCCC)c1ccccc1C(=O)O`: the AC50 was 0.501 µM [falling, full curve].
For `CCOC(=O)C1CCCN(C(=O)c2cc3c(=O)n(C)c4ccccc4c3n2C)C1` (configuration not stated) the value was 2 µM [rising, full curve, poor fit]; for `Cn1c(C(=O)N2CCCCCC2)cc2c(=O)n(C)c3ccccc3c21`, 3.16 µM [rising, full curve]; for `Cc1ccc(-c2csc(=S)n2CC(=O)OCC(=O)NCc2ccco2)cc1`, 3.16 µM [falling, partial curve].
For the molecule `CCOC(=O)CSC1=C(C#N)C(c2ccc(C)s2)CC(=O)N1` (configuration not stated), the half-maximal activity concentration (AC50) was 15.8 µM [rising, single point].
`Cc1ccccc1Cn1c(CN2CCN(c3ccc(F)cc3)CC2)nc2c1c(=O)n(C)c(=O)n2C`: the AC50 is 7.94 µM [rising, partial curve].
As for `CCOC(=O)/C(C#N)=C1/C=Cc2ccccc2N1CC`, the AC50 is 15.8 µM [rising, partial curve].
Consider `CC(C)(C)S(=O)(=O)c1ccccc1C(=O)O`, for which the AC50 is 25.1 µM [falling, single point].
Consider `COc1ccc(NC(=O)c2ccc3c(c2)n(C)c(=O)n3C)cc1`, for which the AC50 was 12.6 µM [rising, single point].
With `O=C(CSc1nnc2ccccn12)Nc1ccccc1C(=O)NC1CC1`, the AC50 is 15.8 µM [falling, single point].
For `COc1cc2c(C(=O)NC3CCCCCC3)cn(C)c(=O)c2cc1OC`, the AC50 was 2 µM [rising, full curve].
Turning to `Cc1ccc(-n2nc3c(c2NC(=O)c2c(-c4ccccc4Cl)noc2C)CSC3)cc1`, the AC50 was 12.6 µM [falling, single point].
In the case of `Cc1cc(NC(=O)c2cnn3c(C(F)F)cc(-c4ccccc4)nc23)no1`, the AC50 is 3.98 µM [rising, single point].
Consider `COc1ccc(NC(=O)COn2nnc3ccc(Cl)cc32)cc1OC`, for which the AC50 is 10 µM [rising, single point].
`CCc1c(C(=O)Nc2ncn(Cc3cccc(C)c3)n2)csc1C`: the AC50 was 0.00316 µM [falling, full curve, poor fit].
On to `O=C(NCCC(=O)N1CCN(c2ncccn2)CC1)c1ccccc1`, for which the AC50 was 0.00316 µM [falling, full curve, poor fit].
Take `N=c1oc2c3c4c(cc2cc1C(=O)Nc1ccccc1)CCCN4CCC3`: the AC50 is 1 µM [rising, partial curve].
As for `CCn1c2c(c3cc(C(=O)O)ccc31)CCCC2=O`, the figure is 12.6 µM [rising, single point]; as for `CCc1ccc(C(=O)CSc2n[nH]c(C)n2)cc1`, 0.0158 µM [falling, full curve, poor fit].
As for `CCOC(=O)c1ccccc1NC(=O)Cn1cnc2c(cnn2-c2ccccc2)c1=O`, the AC50 is 25.1 µM [rising, single point].
On to `CCN(CC)c1ccc(NC(=O)c2ccc(Br)o2)cc1`, for which the AC50 was 0.398 µM [rising, partial curve].
`Cc1cc(N2CCC(C)CC2)nc2ccc(N3C(=O)CCC3=O)cc12`: the AC50 is 0.0251 µM [falling, full curve, poor fit].
As for `Cc1ccc(-c2nc(COC(=O)c3c(C)noc3C)cs2)cc1`, the AC50 was 31.6 µM [falling, partial curve].
For the molecule `Cc1ccc(-c2cc(-c3ccccc3Cl)[nH]n2)c(O)c1`, the AC50 was 10 µM [falling, partial curve].
In the case of `CC(C)(Oc1ccc(Cl)cc1)C(=O)Nc1ccc2oc(-c3ccncc3)nc2c1`, the AC50 was 3.16 µM [rising, single point].
With `O=C(NCCc1ccccc1)C1CCCN1C(=O)Nc1ccc(F)cc1` (configuration not stated), the AC50 is 0.398 µM [falling, partial curve, poor fit].
For `COc1ccc(-n2c(=O)c(CCc3ccccc3)nc3cnc(N4CCNCC4)nc32)cc1`, the AC50 is 12.6 µM [rising, partial curve].
As for `CN(C)C(=O)c1ccc(-c2nccc(NCc3cccnc3)n2)cc1`, the figure is 12.6 µM [rising, single point]; as for `O=C(c1cc2nc(-c3ccccc3)cc(C(F)(F)F)n2n1)N1CCCC1`, 12.6 µM [rising, single point]; as for `Cc1ccccc1-c1cc(Nc2ccc(F)cc2)ncn1`, 6.31 µM [rising, full curve, poor fit].
As for `Cc1nc2ccccc2c2oc(C(=O)NCC3CCCO3)cc12` (configuration not stated), the figure is 2 µM [rising, full curve]; as for `COc1ccccc1N1CCN(C(c2cccs2)C(C)NC(=O)c2cccs2)CC1` (configuration not stated), 25.1 µM [rising, single point].
With `CCOC(=O)C1CCCN(C(=O)c2cc3c(-c4cccc(OC)c4)nn(C)c3s2)C1` (configuration not stated), the AC50 is 2.51 µM [rising, full curve].
For the molecule `CCC(C(=O)NC1CCCC1)N(C(=O)Cn1nnc(-c2ccc(OC)c(OC)c2)n1)C1CCCCC1` (configuration not stated), the AC50 is 10 µM [rising, partial curve].
`CCC1CCc2c(sc(NC(=O)c3ccoc3C)c2C(N)=O)C1` (configuration not stated): the AC50 was 12.6 µM [rising, partial curve].
`COc1ccc(OC)c(-c2cc(C(=O)NCc3ccco3)no2)c1`: the AC50 is 10 µM [rising, partial curve].
Regarding `O=C1c2ccccc2C(=O)N1CCCC(=O)N1CCc2ccccc21`, the half-maximal activity concentration (AC50) was 0.251 µM [rising, partial curve, poor fit].
Consider `Cc1noc(C)c1COc1cccc(C(=O)OCC(=O)N2CC(=O)Nc3ccccc32)c1`, for which the AC50 was 3.16 µM [rising, single point].
Consider `CC(C)(Sc1ccc(CCN(CCCCC2CCCCC2)C(=O)NC2CCCCC2)cc1)C(=O)O`, for which the AC50 was 25.1 µM [falling, partial curve, poor fit] and 20 µM [falling, partial curve].
For `COc1ccc(C)c(Cn2c(-c3nonc3N)nc3ccccc32)c1` the value was 2.51 µM [rising, full curve].
For `CCOC(=O)c1cccc(NC(=O)CSc2nnc(C3CCCCC3)n2CC)c1` the value was 0.00316 µM [falling, full curve, poor fit].
Consider `C=CCn1c(-c2cccs2)nc2nc3ccccc3nc21`, for which the AC50 is 10 µM [rising, partial curve].
As for `CN(C)C(=O)CCc1nc(-c2ccc(C(C)(C)C)cc2)no1`, the figure is 12.6 µM [falling, partial curve].
As for `CCC(C)(C)n1nnnc1CN(Cc1cccs1)Cc1cc2cc(OC)ccc2[nH]c1=O`, the figure is 12.6 µM [rising, partial curve]; as for `CCCc1cc(=O)[nH]c(SCC)n1`, 6.31 µM [rising, partial curve].
In the case of `Cc1nn(-c2ccccn2)c2nc(-c3cccs3)cc(C(=O)N3CCOCC3)c12`, the AC50 is 7.94 µM [rising, partial curve].
In the case of `O=C(c1ccco1)N1CCN(c2nc(C3CC3)nc3sc4c(c23)CCCC4)CC1`, the AC50 was 25.1 µM [falling, single point].
As for `CN(Cc1ccco1)c1ncnc2ccc(-c3ccccc3C#N)cc12`, the figure is 3.16 µM [rising, partial curve].
On to `Cn1c(C(=O)NCC2CCCO2)cc2c(=O)[nH]c3ccccc3c21` (configuration not stated), for which the AC50 is 15.8 µM [rising, partial curve].
As to `C=C(C)COc1ccc(-c2[nH]ncc2Oc2ccccc2OCC)c(O)c1`, the AC50 was 12.6 µM [falling, single point].
For `CCOC(=O)c1c(C)[nH]c(C(C)=O)c1C` the value was 12.6 µM [rising, partial curve]; for `CCNc1ncc2nc(-c3ccccc3)c(=O)n(CCc3ccccc3)c2n1`, 2 µM [rising, full curve].
On to `Cc1ccc(-c2nnn(CC(=O)NCCc3ccc4c(c3)OCO4)n2)o1`, for which the AC50 was 5.01 µM [falling, single point].
For `Cc1csc(NC(=O)CSc2nc(C)nc3c2c(=O)n(C)c(=O)n3C)n1` the value was 2.51 µM [rising, full curve].

A word on the AC50: it is the concentration giving half of the maximal activity seen.
